Taken from: PubChem BioAssay AID504764 (Drosophila RNAi Screening Center, 2011)
Assay: 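Genes whose knock-down alters Notch-dependent transcription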 (primary screen). Cell system: Drosophila Kc167 cells. Reagents: long dsRNA against Drosophila genes. Duration: about 5 days (4 days dsRNA, then 24 h after transfection). Treatment: transfection of constitutively active membrane-tethered Notch lacking the extracellular domain, read 24 h later. Measured: 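Light from a Notch-responsive E(spl)m3 luciferase reporter under active Notch, with control-promoter and no-Notch reporter wells to normalise; raw counts from paired wells a and b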. Scale: induced reporter light, run 1, well a and induced reporter light, run 1, well b: higher = more light from the Notch target reporter with active Notch; control promoter light, run 1, well a and control promoter light, run 1, well b: higher = more light from the viral control promoter (cell number, transfection, viability); uninduced reporter light, run 1, well a: higher = more light from the Notch target reporter without active Notch. Active means: 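Wells with low control signal or poorly matching duplicates excluded; duplicates averaged; per source plate, z beyond ±2 for induced/control log2 ratio or beyond ±1.8 for induced/uninduced marks a hit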. Calls: active = modifier hit (raised or lowered Notch signal); inactive = not a hit.
In all, the deposit lists about 22,000 reagents; shown is an unselected part of those with a known target gene and a result. In the full data, 403 (1.9%) are marked active. 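Unnormalised raw counts per well; ratio z-scores behind the hit calls and whether each hit raises or lowers signal are not deposited.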 Reagents against one gene are numbered here. A plus sign joins genes that one reagent is predicted to hit. Reagent sequences are not shown. Not stated in the record: the amount of reagent.

gene knocked down	dsRNA no.	induced reporter light, run 1, well a	induced reporter light, run 1, well b	control promoter light, run 1, well a	control promoter light, run 1, well b	uninduced reporter light, run 1, well a	activity call
CR31292 (pseudo)	1	1.41e5	1.51e5	1.60e5	1.88e5	10325	inactive
path (pathetic)	1	1.84e5	1.21e5	1.86e5	1.67e5	8950	inactive
CG14418	1	21205	22878	33695	33085	3770	inactive
Hel25E (Helicase at 25E)	1	10845	10825	9875	9850	842	inactive
CG30159	1	2.25e5	2.05e5	2.18e5	2.09e5	14242	inactive
CG11178	1	1.69e5	1.71e5	2.50e5	2.07e5	13795	inactive
thetaTry (thetaTrypsin)	1	1.53e5	1.60e5	1.91e5	1.63e5	12842	inactive
PH4alphaNE3 (prolyl-4-hydroxylase-alpha NE3)	1	1.52e5	1.95e5	2.05e5	2.00e5	10730	inactive
aralar1	1	55035	91370	1.08e5	1.22e5	9620	active
aralar1	2	2.01e5	1.94e5	2.07e5	2.55e5	13095	inactive
Damm (Death associated molecule related to Mch2 caspase)	1	97610	1.09e5	1.42e5	1.17e5	9715	inactive
CR33318 (pseudo)	1						inactive
ro (rough)	1	1.06e5	1.09e5	1.24e5	1.20e5	13460	inactive
CG10931	1	96410	84440	88105	75575	6340	inactive
beag	1	1.24e5	1.15e5	63120	73145	8875	inactive
CG30479	1	95515	1.19e5	1.25e5	1.35e5	9865	inactive
Alp4 (Alkaline phosphatase 4)	1	1.38e5	1.20e5	1.56e5	1.69e5	9605	inactive
crn (crooked neck)	1	53165	50160	59455	76380	3960	inactive
crn (crooked neck)	2	1.04e5	1.01e5	1.67e5	1.33e5	6035	inactive
crn (crooked neck)	3	34755	35195	44290	40320	2678	inactive
axed (axundead)	1	1.91e5	1.92e5	2.04e5	2.03e5	13890	inactive
axed (axundead)	2	2.14e5	1.81e5	2.23e5	2.04e5	8970	inactive
CG4271	1	1.34e5	1.44e5	1.40e5	1.20e5	10885	inactive
CG7252	1	1.18e5	1.11e5	66935	34700	9050	inactive
CG7252	2						inactive
snRNP-U1-70K (small ribonucleoprotein particle U1 subunit 70K)	1	68655	58880	83315	56375	3310	inactive
CG11400	1	1.24e5	1.05e5	88530	1.49e5	10130	inactive
RtcB (RtcB RNA ligase)	1	42215	27545	32195	32390	2925	inactive
sima (similar)	1	11305	13480	14415	12155	3495	inactive
CG31106	1	1.99e5	1.53e5	2.17e5	2.03e5	14415	inactive
CG10029	1	1.03e5	1.00e5	1.11e5	1.08e5	5665	inactive
CG17048	1	1.24e5	1.35e5	1.72e5	1.86e5	10465	inactive
Osi7 (Osiris 7)	1	55515	90160	68910	55855	5532	inactive
CG30001	1	76850	97350	1.04e5	1.22e5	4730	inactive
c(3)G (crossover suppressor on 3 of Gowen)	1	1.35e5	2.89e5	3.45e5	4.48e5	17045	inactive
Vps53 (Vacuolar protein sorting 53)	1	1.74e5	1.66e5	1.61e5	1.52e5	16385	inactive
cry (cryptochrome)	1	1.49e5	1.52e5	1.78e5	1.79e5	10685	inactive
CG1789	1	2.20e5	1.96e5	2.56e5	2.09e5	13180	inactive
CG33758	1	49590	54925	60155	71700	3115	inactive
Srg2 + CG42826	1	85455	90025	93990	37630	10535	inactive
Srg2 + CG42826	2	2.94e5	2.09e5	3.06e5	2.97e5	14550	inactive
Iyd (Iodotyrosine deiodinase)	1	1.61e5	1.30e5	1.63e5	1.66e5	7435	inactive
Iyd (Iodotyrosine deiodinase)	2	1.96e5	1.47e5	2.17e5	2.09e5	9820	inactive
ham (hamlet)	1	65625	61225	59270	47900	4115	inactive
ham (hamlet)	2	35295	46295	58580	28995	2395	inactive
ham (hamlet)	3	42190	46170	51980	38750	3285	inactive
Syt12 (Synaptotagmin 12)	1	1.46e5	1.42e5	3.29e5	2.91e5	9120	inactive
CG14194	1	81270	71885	88980	1.03e5	9175	inactive
Ubc4 (Ubiquitin conjugating enzyme 4)	1	1.35e5	1.39e5	97305	53945	12492	inactive
sol (small optic lobes)	1	90310	75520	92565	1.24e5	8615	inactive

Only “induced reporter light, run 1, well a” (5 entries from above):
Alp4 (Alkaline phosphatase 4)	1.38e5
crn (crooked neck) #1	53165
crn (crooked neck) #2	1.04e5
crn (crooked neck) #3	34755
axed (axundead) #1	1.91e5
